Measured values published in article PMC4671683.
These are yes or no findings as the source states them, for the method shown. In cells and extracts the contact can be indirect. A yes stands for co-enrichment or nearness to the bait. Other partners may have been found.

Chains of the proteins cited; added tags and fusions are not shown.
UniProt P26368: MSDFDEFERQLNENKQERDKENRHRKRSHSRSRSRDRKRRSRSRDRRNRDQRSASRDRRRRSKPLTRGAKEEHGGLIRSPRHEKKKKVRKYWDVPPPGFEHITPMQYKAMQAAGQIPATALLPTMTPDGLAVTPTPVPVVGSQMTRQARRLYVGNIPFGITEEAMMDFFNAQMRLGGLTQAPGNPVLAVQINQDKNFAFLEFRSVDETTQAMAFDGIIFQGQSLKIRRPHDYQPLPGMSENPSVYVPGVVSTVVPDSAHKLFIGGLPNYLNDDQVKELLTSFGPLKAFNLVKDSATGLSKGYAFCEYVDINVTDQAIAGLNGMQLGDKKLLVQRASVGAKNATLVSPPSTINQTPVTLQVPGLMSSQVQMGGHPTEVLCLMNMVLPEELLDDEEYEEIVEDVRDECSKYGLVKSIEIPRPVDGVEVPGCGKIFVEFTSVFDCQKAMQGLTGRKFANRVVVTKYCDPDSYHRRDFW
UniProt Q07955: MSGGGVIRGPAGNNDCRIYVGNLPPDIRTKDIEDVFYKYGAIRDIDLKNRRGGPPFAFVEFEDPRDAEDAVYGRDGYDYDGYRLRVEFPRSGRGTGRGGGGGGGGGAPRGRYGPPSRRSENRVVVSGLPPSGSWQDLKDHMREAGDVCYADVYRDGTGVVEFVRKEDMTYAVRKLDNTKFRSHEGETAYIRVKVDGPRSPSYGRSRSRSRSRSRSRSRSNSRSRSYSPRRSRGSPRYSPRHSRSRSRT
UniProt Q9UQ35: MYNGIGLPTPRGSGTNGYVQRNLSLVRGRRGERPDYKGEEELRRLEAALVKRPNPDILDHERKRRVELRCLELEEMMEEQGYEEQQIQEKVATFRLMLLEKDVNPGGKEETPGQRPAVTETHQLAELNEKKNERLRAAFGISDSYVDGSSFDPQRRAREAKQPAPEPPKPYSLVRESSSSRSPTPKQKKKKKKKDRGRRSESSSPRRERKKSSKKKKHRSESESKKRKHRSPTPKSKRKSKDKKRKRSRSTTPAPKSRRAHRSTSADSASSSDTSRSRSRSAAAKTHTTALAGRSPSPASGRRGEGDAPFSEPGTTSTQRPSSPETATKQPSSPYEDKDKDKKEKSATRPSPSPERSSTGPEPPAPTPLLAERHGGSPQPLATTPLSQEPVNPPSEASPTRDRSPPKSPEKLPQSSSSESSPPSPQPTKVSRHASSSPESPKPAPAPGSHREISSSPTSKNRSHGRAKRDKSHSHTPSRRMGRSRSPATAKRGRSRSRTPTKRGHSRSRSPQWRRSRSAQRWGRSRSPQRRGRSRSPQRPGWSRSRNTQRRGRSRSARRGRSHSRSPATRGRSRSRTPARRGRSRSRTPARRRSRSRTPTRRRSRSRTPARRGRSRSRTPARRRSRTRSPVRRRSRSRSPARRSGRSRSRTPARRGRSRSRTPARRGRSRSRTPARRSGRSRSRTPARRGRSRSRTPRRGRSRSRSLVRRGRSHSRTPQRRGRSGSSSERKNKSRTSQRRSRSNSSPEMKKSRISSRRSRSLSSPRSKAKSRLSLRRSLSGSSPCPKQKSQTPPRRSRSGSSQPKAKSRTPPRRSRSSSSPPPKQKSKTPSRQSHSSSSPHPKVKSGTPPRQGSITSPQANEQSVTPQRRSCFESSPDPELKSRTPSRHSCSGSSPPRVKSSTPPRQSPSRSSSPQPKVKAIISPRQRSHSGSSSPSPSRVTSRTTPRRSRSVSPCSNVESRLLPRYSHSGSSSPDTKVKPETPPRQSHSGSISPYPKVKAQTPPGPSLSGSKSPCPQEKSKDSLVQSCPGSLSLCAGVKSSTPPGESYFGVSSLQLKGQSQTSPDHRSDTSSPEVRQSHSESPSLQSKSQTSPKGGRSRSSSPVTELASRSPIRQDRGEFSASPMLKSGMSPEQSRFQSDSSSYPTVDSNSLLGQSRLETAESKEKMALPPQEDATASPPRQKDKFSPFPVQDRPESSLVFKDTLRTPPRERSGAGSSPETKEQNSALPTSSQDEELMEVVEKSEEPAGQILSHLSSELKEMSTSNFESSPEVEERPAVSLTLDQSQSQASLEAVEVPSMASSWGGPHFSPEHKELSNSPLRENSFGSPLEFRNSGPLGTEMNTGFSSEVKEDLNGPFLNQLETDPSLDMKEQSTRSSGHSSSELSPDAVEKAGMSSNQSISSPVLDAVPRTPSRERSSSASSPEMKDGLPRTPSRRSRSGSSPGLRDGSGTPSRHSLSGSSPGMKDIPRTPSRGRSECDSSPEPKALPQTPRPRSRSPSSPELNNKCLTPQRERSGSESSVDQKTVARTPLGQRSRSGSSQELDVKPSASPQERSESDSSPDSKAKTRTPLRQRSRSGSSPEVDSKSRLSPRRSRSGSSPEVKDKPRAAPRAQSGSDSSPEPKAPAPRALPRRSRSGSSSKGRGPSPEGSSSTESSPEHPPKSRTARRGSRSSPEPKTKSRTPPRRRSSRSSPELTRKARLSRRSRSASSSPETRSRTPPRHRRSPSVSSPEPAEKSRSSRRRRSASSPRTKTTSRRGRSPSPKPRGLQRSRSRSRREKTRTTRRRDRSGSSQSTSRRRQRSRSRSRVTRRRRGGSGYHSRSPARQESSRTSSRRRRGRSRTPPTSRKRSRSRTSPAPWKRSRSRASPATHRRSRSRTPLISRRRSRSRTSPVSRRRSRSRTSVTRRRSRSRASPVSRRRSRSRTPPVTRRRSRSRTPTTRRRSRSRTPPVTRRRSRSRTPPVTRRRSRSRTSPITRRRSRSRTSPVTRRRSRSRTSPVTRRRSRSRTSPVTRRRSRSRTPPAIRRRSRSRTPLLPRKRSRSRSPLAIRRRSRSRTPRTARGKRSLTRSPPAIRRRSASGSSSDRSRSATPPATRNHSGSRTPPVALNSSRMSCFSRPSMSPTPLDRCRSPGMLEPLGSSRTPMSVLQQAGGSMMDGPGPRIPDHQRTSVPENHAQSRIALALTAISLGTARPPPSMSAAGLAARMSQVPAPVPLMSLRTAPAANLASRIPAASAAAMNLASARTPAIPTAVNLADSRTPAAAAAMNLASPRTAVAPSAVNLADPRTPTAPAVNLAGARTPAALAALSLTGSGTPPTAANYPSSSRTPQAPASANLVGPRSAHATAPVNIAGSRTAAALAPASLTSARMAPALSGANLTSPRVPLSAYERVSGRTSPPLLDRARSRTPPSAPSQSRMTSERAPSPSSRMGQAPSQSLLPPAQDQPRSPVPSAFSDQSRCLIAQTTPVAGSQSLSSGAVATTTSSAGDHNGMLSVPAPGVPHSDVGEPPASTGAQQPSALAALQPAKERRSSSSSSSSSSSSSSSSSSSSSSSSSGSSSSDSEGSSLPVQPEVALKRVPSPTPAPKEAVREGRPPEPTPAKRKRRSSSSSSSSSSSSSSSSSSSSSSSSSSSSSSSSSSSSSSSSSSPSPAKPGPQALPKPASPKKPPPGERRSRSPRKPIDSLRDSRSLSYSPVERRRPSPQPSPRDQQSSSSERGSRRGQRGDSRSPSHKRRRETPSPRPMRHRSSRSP

Legend:
[1] = target: U2AF2 (human (endogenous in primary CD4 T cells and Jurkat cells)) (UniProt P26368); assay: affinity purification with mass spectrometry; U2AF2 RIP from lysates (RIPA + NET-2 buffer) of resting or activated CD4 T cells, pre-cleared with mouse IgG beads, U2AF2 antibody on Protein G beads overnight at 4°C, 5 washes with NET-2, no RNase; TripleTOF 5600, n = 6/group
[2] = target: U2AF2 (human (endogenous in primary CD4 T cells and Jurkat cells)) (UniProt P26368); assay: affinity purification with mass spectrometry; as the U2AF2 RIP-MS, but RNAse A digestion on the beads (10 ug/ml for 30 minutes at RT) before elution; resting or activated CD4 T cells, n = 4/group
[3] = target: U2AF2 (human (endogenous in primary CD4 T cells and Jurkat cells)) (UniProt P26368); assay: affinity purification with mass spectrometry; SILAC: lysates of labelled and unlabelled resting and activated CD4 T cells mixed by cell number, U2AF2 RIP, mass spectrometry, ratios resting/activated, n = 3/group

Row | binding [1] | binding [2] | binding [3] | Substance
1 | binds |  |  | SFRS1 (from UniProt Q07955 1-248)
2 | binds | binds | binds | SRRM2 (from UniProt Q9UQ35 1-2752)
